Experiments:
[1] = system: CLL samples compared to a panel of normal tissues; experiment: Identification and label-free relative LC-MS quantitation of HLA-presented peptides (presentation profiles and scores); design: species or system human; key: very highly over-presented on tumors compared to a panel of normal tissues (+++); highly over-presented on tumors compared to a panel of normal tissues (++); over-presented on tumors compared to a panel of normal tissues (+); conditions: presentation score; over-presentation on tumors (CLL samples) compared to a panel of normal tissues
[2] = system: other tumor types (e.g. non-Hodgkin lymphoma, lung cancer); experiment: Presentation of the peptides on additional tumor types (LC-MS, Tables 4A/4B, FIG. 1); design: species or system human; conditions: for Other relevant organs/diseases: Table 4A: additional tumor types where the peptide was over-presented on more than 5% of the measured tumor samples, or presented on more than 5% with ratio of geometric means tumor vs normal tissues larger than 3; for Additional Entities: Table 4B: additional tumour types with over-presentation (including specific presentation) on more than 5% of the measured tumour samples, or presentation on more than 5% with ratio of geometric means tumour vs normal tissues larger than 3, extended normal tissue panel

Substance	Peptide Presentation [1]	Other relevant organs/diseases [2]	Additional Entities [2]
3 (VIAELPPKV; listed as Homo sapiens) [compound 3]	+++	NHL	
260 (SLDDVEGMSV; listed as Homo sapiens) [compound 260]	++	NHL, Gallbladder Cancer, Bile Duct Cancer	SCLC, HNSCC
154 (SLLAELHVLTV; listed as Homo sapiens) [compound 154]	++	NHL	
94 (ILFPLRFTL; listed as Homo sapiens) [compound 94]	+++	NSCLC, RCC, CRC, NHL, Melanoma, OC	Gallbladder Cancer, Bile Duct Cancer, AML, HNSCC
80 (VLIEDELEEL; listed as Homo sapiens) [compound 80]	+++	NHL	
52 (FLVETGFLHV; listed as Homo sapiens) [compound 52]	+++	Melanoma	
311 (LLVDVEPKV; listed as Homo sapiens) [compound 311]	+	NSCLC, SCLC, RCC, HCC, PC, NHL, AML, Melanoma	Uterine Cancer, HNSCC
48 (FLSPQQPPLL; listed as Homo sapiens) [compound 48]	+++	NHL	HNSCC
124 (LLLEETEKQAV; listed as Homo sapiens) [compound 124]	++	RCC, HCC	HNSCC
15 (ALPEVSVEA; listed as Homo sapiens) [compound 15]	+	NHL, AML, Melanoma	Esophageal Cancer
138 (NLLDIDAPVTV; listed as Homo sapiens) [compound 138]	++	SCLC, NHL	Uterine Cancer, AML
35 (FILPSSLYL; listed as Homo sapiens) [compound 35]	+++	RCC, NHL, AML, Gallbladder Cancer, Bile Duct Cancer	SCLC, Uterine Cancer
70 (FVPDTPVGV; listed as Homo sapiens) [compound 70]	++	NHL	
268 (TLLQVFHLL; listed as Homo sapiens) [compound 268]	++	NHL	Uterine Cancer
141 (QILSEIVEA; listed as Homo sapiens) [compound 141]	++	NHL, Melanoma	Uterine Cancer
175 (FTVPRVVAV; listed as Homo sapiens) [compound 175]	++	NHL	
127 (LLPTAPTTV; listed as Homo sapiens) [compound 127]	+++	NHL	SCLC

Substance	Peptide Presentation [1]	Other relevant organs/diseases [2]	Additional Entities [2]
284 (LLSAAEPVPA; listed as Homo sapiens) [compound 284]	+++	NHL	
209 (ILQAELPSL; listed as Homo sapiens) [compound 209]	++	NHL	
24 (AMAGDVVYA; listed as Homo sapiens) [compound 24]	+++	NHL	
304 (LAIVPVNTL; listed as Homo sapiens) [compound 304]	+++	AML	
305 (LLFPQIEGIKI; listed as Homo sapiens) [compound 305]	+	NHL, Melanoma	Urinary Bladder Cancer, HNSCC
342 (SLITPLQAV; listed as Homo sapiens) [compound 342]	+++	NHL, AML, Urinary bladder cancer, Gallbladder Cancer, Bile Duct Cancer	HNSCC
208 (ILLKTEGINL; listed as Homo sapiens) [compound 208]	++	NHL, BRCA, OC, Urinary bladder cancer	Melanoma, HNSCC
227 (FLAEASVMTQL; listed as Homo sapiens) [compound 227]	++	NHL	
384 (YMIGSEVGNYL; listed as Homo sapiens) [compound 384]	+	NHL, Urinary bladder cancer	SCLC, Uterine Cancer
90 (VIADLGLIRV; listed as Homo sapiens) [compound 90]	+++		Melanoma
340 (KLLEEICNL; listed as Homo sapiens) [compound 340]	++		Melanoma, Uterine Cancer, AML, NHL
244 (ILQALAVHL; listed as Homo sapiens) [compound 244]	++	NHL, AML, OC	
273 (VLGEYSYLL; listed as Homo sapiens) [compound 273]	+		NHL, HNSCC
79 (GLQAKIQEA; listed as Homo sapiens) [compound 79]	+++	NHL, Esophageal Cancer, Uterine Cancer	
109 (KLWEGLTELV; listed as Homo sapiens) [compound 109]	++	AML	
60 (FVLDHEDGLNL; listed as Homo sapiens) [compound 60]	++	Melanoma, Esophageal Cancer	
322 (SLASIHVPL; listed as Homo sapiens) [compound 322]	+++	NHL	
